From PubChem BioAssay AID2685 (National Center for Advancing Translational Sciences (NCATS), 2010)
This is one part of the list. Further columns of the screen follow, without active or inactive calls. The list favours compounds with an active or inconclusive main result. Words in brackets tell the shape of the fitted curve; partial curves, single points and poor fits give uncertain potencies.

Assay: qHTS Assay for Lipid Storage Modulators in Drosophila S3 Cells;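 on cell number change: cells counted by Cell Tracker Red CMTPX staining in the red channel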
Settings: BODIPY lipid droplet fluorescence, 18-24 h; for cell number change: measured here: cell count max response, cells fed with added oleic acid
Outline: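 Drosophila S3 cells got compounds at several concentrations plus oleic acid (400 uM solution). Laser-scanning cytometry with 488 nm excitation read lipid droplets at 500-530 nm and cells at 575-640 nm. Percent activity was relative to 20 uM Triacsin C.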

[1] = measured here: lipid fluorescence (Fed channel) AC50, cells fed with added oleic acid
[2] = measured here: cell number channel AC50, cells fed with added oleic acid

Structure (SMILES) | cell number change [%] | AC50 [1] | AC50 [2]
Cc1ccc(SCCC(=O)Nc2ccccc2C(=O)NC2CCCCC2)cc1 | -10.8 | 6.51 µM [rising, single point] | –
NC(=O)c1ccc(NC(=O)c2ccc(COc3ccc(F)cc3)o2)cc1 | 2.59 | 23.1 µM [rising, partial curve] | –
Cc1ccc(SCCNC(=O)CN2C(=O)c3ccccc3S2(=O)=O)cc1 | -18.3 | – | 0.00366 µM [falling, full curve, poor fit]
O=[N+]([O-])c1cccc(-c2n[nH]c(=S)n2Cc2ccccc2)c1 | 2 | 11.6 µM [rising, partial curve] | –
CCCC(=O)N1CCN(c2ccc(NC(=O)c3cc4ccccc4o3)cc2)CC1 | 13.6 | – | –
O=C(NCC1CCCO1)c1ccc(CS(=O)(=O)c2c(Cl)cccc2Cl)o1 (centres undefined) | 12.5 | 18.4 µM [rising, single point] | –
CS(=O)(=O)Oc1ccc2c(c1)O/C(=C\c1cccnc1)C2=O | -14.6 | 13 µM [falling, partial curve, poor fit] | –
CN(C)S(=O)(=O)c1cccc(NC(=O)CN2C(=O)NC3(CCc4ccccc4C3)C2=O)c1 (centres undefined) | 0.427 | – | –
O=c1oc2ccccc2c(O)c1Cc1cc(Cl)c2cccnc2c1O | -53.2 | 1.3 µM [falling, full curve] | 0.82 µM [falling, full curve]
CC1CCCC/C1=N\NC(=S)Nc1cccnc1 (centres undefined) | 8.6 | 6.51 µM [rising, single point] | –
CC(=O)Oc1ccc2c(C)c(CC(C)O)c(=O)oc2c1 (centres undefined) | 2.99 | 3.66 µM [rising, single point] | –
CCOC(=O)N1CCN(S(=O)(=O)c2ccc(C(=O)Nc3ccc4c(c3)C(=O)NC4=O)cc2)CC1 | 8.03 | – | 1.84 µM [falling, partial curve]
O=C(CSc1nc(-c2ccco2)cc(C(F)(F)F)n1)Nc1cccnc1 | -8.27 | 0.00517 µM [rising, full curve, poor fit] | –
Fc1ccc(NC2=NCCCCC2)cc1 | -25.4 | – | –
Cc1cc(N2C(=O)C3C4c5ccccc5C(c5ccccc54)C3C2=O)no1 (centres undefined) | 1.45 | – | –
Cc1ccc(S(=O)(=O)N(C)C)cc1NC(=O)CSc1nc2ncc(Cl)cc2[nH]1 | 31.5 | – | 9.2 µM [rising, partial curve, poor fit]
COCCCNCCOCCOc1ccc(C)cc1[N+](=O)[O-] | 32.8 | – | 25.9 µM [rising, single point]
COc1cccc(NC(=O)C(NCC(C)(C)CN(C)C)c2ccccc2)c1 (centres undefined) | 12.6 | – | –
O=C(NC(c1ccccc1)c1ccccc1)C1CCCC1 | -12.4 | – | 0.517 µM [falling, single point]
CCOC(=O)c1cc2cc(CC(=O)c3ccc(OCC)cc3O)ccc2o1 | 15.7 | – | –
CC(C)c1ccc(/C=C2\SC(=O)N(CC(=O)NC3CCS(=O)(=O)C3)C2=O)cc1 (centres undefined) | – | 1.3 µM [falling, partial curve] | –

Single records, as listed above:
`COCCCNCCOCCOc1ccc(C)cc1[N+](=O)[O-]` reads cell number change [%]: 32.8; AC50 [2]: 25.9 µM [rising, single point]
`CC(C)c1ccc(/C=C2\SC(=O)N(CC(=O)NC3CCS(=O)(=O)C3)C2=O)cc1` (centres undefined) reads AC50 [1]: 1.3 µM [falling, partial curve]

Further entries

Structure (SMILES) | cell number change [%] | AC50 [1] | AC50 [2]
COc1ccccc1CN(Cc1cc2cc3c(cc2[nH]c1=O)OCCO3)Cc1nnnn1Cc1ccco1 | – | 7.31 µM [falling, partial curve, poor fit] | –
O=C(CSc1nnc(CNc2ccccc2)o1)N1CCCc2ccccc21 | – | 29.1 µM [rising, partial curve, poor fit] | –
COC(=O)c1ccc(CSc2nccn2C)cc1 | 88.9 | 20.6 µM [rising, partial curve] | 20.6 µM [rising, partial curve]
CN1CCN(P(=O)(c2ccccc2)c2nc3ccccc3s2)CC1 (centres undefined) | -38.4 | 0.326 µM [falling, full curve, poor fit] | –
Cc1cc(C(=O)N/N=C/c2c3ccccc3cc3ccccc23)n[nH]1 | 16.1 | 6.51 µM [rising, single point] | –
c1ccc(-c2nnc(SCc3cn4ccsc4n3)o2)cc1 | 1.76 | 1.46 µM [falling, partial curve] | –
Cn1c(=O)c2c(nc(CN3CCN(C(=O)c4ccco4)CC3)n2Cc2ccc(F)cc2)n(C)c1=O | -15.9 | 3.66 µM [rising, single point] | –
Cn1c(Cc2cccs2)nnc1SCC(=O)Nc1ccc(F)cc1F | -24.5 | – | 3.26 µM [falling, full curve, poor fit]
CCOc1ccccc1C(=O)Nc1cccc(-c2nnc(-c3ccccc3)o2)c1 | 39.7 | 0.092 µM [rising, full curve, poor fit] | –
COc1cccc(-c2nnc(-c3ccccc3[N+](=O)[O-])o2)c1 | 29.3 | – | 0.00651 µM [rising, full curve, poor fit]
CC(C)c1ccc(O)c(NC(=S)NC(=O)c2ccc3c(c2)OCO3)c1 | -60.6 | – | 16.4 µM [falling, single point]
CC(=O)NC(C)c1cc(F)c2cccnc2c1O (centres undefined) | 22.3 | 1.16 µM [rising, partial curve] | –
CC(C)CC(c1nnnn1C(C)C)N1CCN(c2cccc(Cl)c2)CC1 (centres undefined) | -2.37 | 18.4 µM [falling, single point] | –
CN(C)N1C(N)=C(C#N)C(c2cccc3ccccc23)C2=C1CC(c1ccccc1)CC2=O (centres undefined) | -7.18 | 29.1 µM [falling, single point] | –
Cn1c(CN2CCCCC2)nc2cc([N+](=O)[O-])ccc21 | 22.5 | – | –
COc1ccc(C)cc1NC(=O)CSc1nc(=O)n(CCCN2CCOCC2)c2c1CCCC2 | -9.66 | 2.06 µM [rising, partial curve, poor fit] | –
O=C(NNC(=S)NC(=O)c1ccco1)c1ccc(F)cc1 | 1.6 | – | –
O=C(NCC(c1ccco1)N1CCCCC1)c1cc2c(s1)CCCC2 (centres undefined) | 16.3 | – | 2.06 µM [falling, single point]
Cc1cccc(OCc2nnc(SCC(=O)N3CCCC3)n2C)c1 | 58.7 | 6.51 µM [rising, single point] | 16.4 µM [rising, partial curve]
O=C(CN1CCN(c2ccccn2)CC1)NC1CCCC1 | 0.194 | 14.6 µM [rising, single point] | –
